For the assay, the target named is BCMA antigen (UniProt Q02223). Kind of assay: flow cytometry, CAR-T cells stained with BCMA antigen.

Chains of the proteins cited; added tags and fusions are not shown. Residues count along the entry.
UniProt Q02223, residues 1-54: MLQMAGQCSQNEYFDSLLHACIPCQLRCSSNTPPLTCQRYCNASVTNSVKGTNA

Results are given in words; binding and its absence hold for the method and conditions named. Some binding calls cover weakened binding; strength is not graded here.

B1: CAR-J1 (scFv, V domains shown)
VH: QVQLQQSGGGLVQPGGSLKLSCAASGIDFSRYWMSWVRRAPGKGLEWIGEINPDSSTINYAPSLKDKFIISRDNAKNTLYLQMSKVRSEDTALYYCASLYYDYGDAMDYWGQGTSVTVSS
VL: DIVMTQSQRFMTTSVGDRVSVTCKASQSVDSNVAWYQQKPRQSPKALIFSASLRFSGVPARFTGSGSGTDFTLTISNLQSEDLAEYFCQQYNNYPLTFGAGTKLELK
As to B1, the binding result is “binds”.

These data come from patent publication US20220202864A1.
